PubChem BioAssay AID493246 | Drosophila RNAi Screening Center – 2011

Assay: 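Genome-wide search for dsRNAs that reduce cell number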 (primary screen)
Cell system: Drosophila Kc and S2R+ cells
Reagent: long dsRNA against Drosophila genes
Read-out: 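Raw, unnormalised count of remaining cells in each well; per-plate z-scores of cell number underlie the calls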
Direction: Kc cell number and S2R+ cell number: higher = more cells remaining
Call rule: 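Counted as a hit if cell number falls by a z-score of at least 3 within its plate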
In all, the deposit lists about 21,000 reagents; this is a random part of those that have a named target and a result. Over the whole deposit, 429 (2%) were called active. 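Values are raw and not normalised between plates; calls rest on per-plate z-scores that were not deposited.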 The numbers tell different reagents against one gene apart. A plus sign joins genes that one reagent is predicted to hit. Not stated in the record: the amount of reagent, the time to read-out.

| predicted target | reagent no. | Kc cell number, rep 1 | Kc cell number, rep 2 | S2R+ cell number, rep 1 | S2R+ cell number, rep 2 | outcome |
| --- | --- | --- | --- | --- | --- | --- |
| tank | 1 | 1.55e6 | 1.48e6 | 1.27e6 | 1.31e6 | inactive |
| Or59a (Odorant receptor 59a) | 1 | 1.48e6 | 1.51e6 | 1.25e6 | 1.36e6 | inactive |
| Sytbeta (Synaptotagmin beta) | 1 | 1.32e6 | 1.44e6 | 1.25e6 | 1.39e6 | inactive |
| Sytbeta (Synaptotagmin beta) | 2 | 1.39e6 | 1.64e6 | 1.40e6 | 1.50e6 | inactive |
| CG6191 | 1 | 1.22e6 | 1.41e6 | 7.75e5 | 8.05e5 | inactive |
| Agps (Alkylglycerone phosphate synthase) | 1 | 1.48e6 | 1.50e6 | 1.18e6 | 1.33e6 | inactive |
| Jon65Ai (Jonah 65Ai) | 1 | 1.40e6 | 1.45e6 | 1.15e6 | 1.18e6 | inactive |
| CG31798 | 1 | 1.49e6 | 1.56e6 | 9.66e5 | 1.15e6 | inactive |
| nmdyn-D6 | 1 | 1.58e6 | 1.58e6 | 1.07e6 | 1.22e6 | inactive |
| CG31140 | 1 | 1.32e6 | 1.49e6 | 1.09e6 | 1.21e6 | inactive |
| CG31140 | 2 | 1.49e6 | 1.53e6 | 1.20e6 | 1.26e6 | inactive |
| CG31140 | 3 | 1.64e6 | 1.55e6 | 1.02e6 | 1.14e6 | inactive |
| CG31473 | 1 | 1.33e6 | 1.39e6 | 1.32e6 | 1.37e6 | inactive |
| CG13137 | 1 | 1.48e6 | 1.53e6 | 1.20e6 | 1.36e6 | inactive |
| rtv (retroactive) | 1 | 5.14e5 | – | 8.12e5 | – | inactive |
| RpS28a (Ribosomal protein S28a) | 1 | 1.53e6 | 1.55e6 | 1.12e6 | 1.20e6 | inactive |
| TppII (Tripeptidyl-peptidase II) | 1 | 1.47e6 | 1.49e6 | 1.20e6 | 1.13e6 | inactive |
| eIF3d1 (eukaryotic translation initiation factor 3 subunit d1) | 1 | 1.14e6 | 1.19e6 | 7.79e5 | 9.25e5 | inactive |
| ppk20 (pickpocket 20) | 1 | 1.43e6 | 1.44e6 | 1.01e6 | 1.05e6 | inactive |
| BBS5 (Bardet-Biedl syndrome 5) | 1 | 1.59e6 | 1.52e6 | 1.45e6 | 1.50e6 | inactive |
| CG3638 | 1 | 1.47e6 | 1.54e6 | 1.05e6 | 1.16e6 | inactive |
| AP-1sigma (Adaptor Protein complex 1, sigma subunit) | 1 | 1.54e6 | 1.58e6 | 1.13e6 | 1.26e6 | inactive |
| Sfp26Ad (Seminal fluid protein 26Ad) | 1 | 1.38e6 | 1.48e6 | 9.97e5 | 1.15e6 | inactive |
| St2 (Sulfotransferase 2) | 1 | 1.81e6 | 2.05e6 | 1.35e6 | 1.53e6 | inactive |
| pot (papillote) | 1 | 7.15e5 | – | 9.20e5 | – | inactive |
| CG18596 | 1 | 1.47e6 | 1.58e6 | 1.10e6 | 1.18e6 | inactive |
| CG13791 (retired record) | 1 | 1.68e6 | 1.58e6 | 1.16e6 | 1.40e6 | inactive |
| CG33791 + CG18170 | 1 | 1.39e6 | 1.44e6 | 1.08e6 | 1.23e6 | inactive |
| CG33791 + CG18170 | 2 | 1.40e6 | 1.40e6 | 1.03e6 | 1.18e6 | inactive |
| bero (belly roll) | 1 | 1.55e6 | 1.68e6 | 1.30e6 | 3.91e5 | inactive |
| CG13074 | 1 | 1.26e6 | 1.34e6 | 1.30e6 | 1.36e6 | inactive |
| CG13203 | 1 | 1.47e6 | 1.50e6 | 1.25e6 | 1.38e6 | inactive |
| Jon99Fii + Jon99Cii + Jon99Ciii + 1 more | 1 | 1.44e6 | 1.48e6 | 1.01e6 | 1.10e6 | inactive |
| CG13073 | 1 | 1.36e6 | 1.59e6 | 1.32e6 | 1.38e6 | inactive |
| CG30373 | 1 | 1.49e6 | 1.60e6 | 9.61e5 | 1.09e6 | inactive |
| eIF3b (eukaryotic translation initiation factor 3 subunit b) | 1 | 1.32e6 | 1.37e6 | 7.75e5 | 8.77e5 | inactive |
| hep (hemipterous) | 1 | 1.49e6 | 1.50e6 | 1.04e6 | 1.12e6 | inactive |
| hep (hemipterous) | 2 | 1.66e6 | 1.58e6 | 1.04e6 | 1.10e6 | inactive |
| Whamy (WHAMM and JMY related) | 1 | 1.47e6 | 1.46e6 | 1.30e6 | 1.36e6 | inactive |
| Nph (Nucleophosmin) | 1 | 1.55e6 | 1.60e6 | 1.07e6 | 1.21e6 | inactive |
| chrb (charybde) | 1 | 1.34e6 | 1.41e6 | 1.01e6 | 1.14e6 | inactive |
| CG32284 | 1 | 1.52e6 | 1.42e6 | 1.02e6 | 1.15e6 | inactive |
| CG10254 | 1 | 1.52e6 | 1.56e6 | 1.19e6 | 1.30e6 | inactive |
| Lcch3 (Ligand-gated chloride channel homolog 3) | 1 | 6.60e5 | – | 9.89e5 | – | inactive |
| Cpr50Cb (Cuticular protein 50Cb) | 1 | 1.57e6 | 1.63e6 | 1.25e6 | 1.39e6 | inactive |
| Ufl1 (UFM1 specific ligase 1) | 1 | 1.64e6 | 1.68e6 | 1.33e6 | 1.44e6 | inactive |
| CG7326 | 1 | 1.62e6 | 1.64e6 | 1.10e6 | 1.20e6 | inactive |
| mus301 (mutagen-sensitive 301) | 1 | 1.64e6 | 1.69e6 | 1.01e6 | 1.00e6 | inactive |
| Rad1 + Sws1 | 1 | 1.80e6 | 1.80e6 | 1.15e6 | 1.28e6 | inactive |
| CG17681 | 1 | 1.62e6 | 1.67e6 | 1.33e6 | 1.52e6 | inactive |
| Naa60 (N(alpha)-acetyltransferase 60) | 1 | 1.33e6 | 1.26e6 | 1.26e6 | 1.40e6 | inactive |
| spag4 (sperm-associated antigen 4) | 1 | 1.61e6 | 1.66e6 | 1.35e6 | 1.59e6 | inactive |
| CG34458 | 1 | 1.65e6 | 1.66e6 | 1.25e6 | 1.48e6 | inactive |
| CRAT (Carnitine O-Acetyl-Transferase) | 1 | 1.57e6 | 1.68e6 | 1.33e6 | 1.44e6 | inactive |
| Tmem131 (Transmembrane protein 131) | 1 | 1.29e6 | 1.36e6 | 1.18e6 | 1.16e6 | inactive |
| CG10140 | 1 | 1.30e6 | 1.30e6 | 1.31e6 | 1.37e6 | inactive |
| brk (brinker) | 1 | 1.42e6 | 1.45e6 | 8.72e5 | 9.81e5 | inactive |
| JMJD5 (Jumonji domain containing 5) | 1 | 1.50e6 | 1.16e6 | 1.10e6 | 1.36e6 | inactive |
| CG5114 | 1 | 1.86e6 | 1.98e6 | 1.05e6 | 1.15e6 | inactive |
| CG9706 | 1 | 1.51e6 | 1.56e6 | 1.18e6 | 1.20e6 | inactive |
| CG33489 | 1 | 1.31e6 | 1.42e6 | 1.34e6 | 1.35e6 | inactive |
| Ptpmeg2 (Protein tyrosine phosphatase Meg2) | 1 | 1.51e6 | 1.46e6 | 9.91e5 | 1.11e6 | inactive |
| Ptpmeg2 (Protein tyrosine phosphatase Meg2) | 2 | 1.49e6 | 1.48e6 | 9.51e5 | 1.08e6 | inactive |
| His2B:CG33894 + His2B:CG33872 + His2B:CG33902 + 20 more | 1 | 6.14e5 | 7.69e5 | 4.63e5 | 5.52e5 | active |
| CG3348 | 1 | 1.51e6 | 1.58e6 | 1.06e6 | 1.20e6 | inactive |
| CkIIbeta2 (Casein kinase II beta2 subunit) | 1 | 1.64e6 | 1.68e6 | 1.24e6 | 1.46e6 | inactive |
| Gs1l (GS1-like) | 1 | 1.46e6 | 1.41e6 | 1.12e6 | 1.27e6 | inactive |
| CG12541 | 1 | 1.35e6 | 1.51e6 | 1.13e6 | 1.22e6 | inactive |
| CG12541 | 2 | 1.69e6 | 1.58e6 | 1.07e6 | 1.22e6 | inactive |
| CG12078 | 1 | 1.50e6 | 1.31e6 | 1.01e6 | 1.26e6 | inactive |
| tilB (touch insensitive larva B) | 1 | 1.44e6 | 1.46e6 | 1.00e6 | 1.08e6 | inactive |
| tau | 1 | 1.49e6 | 1.51e6 | 9.47e5 | 1.07e6 | inactive |
| CG10903 | 1 | 1.34e6 | 1.44e6 | 1.21e6 | 1.35e6 | inactive |
| CG14538 (retired record) | 1 | 1.63e6 | 1.60e6 | 1.21e6 | 1.32e6 | inactive |
| Eglp4 (Entomoglyceroporin 4) | 1 | 1.52e6 | 1.55e6 | 1.22e6 | 1.31e6 | inactive |

Entries listed so far whose target name starts with S or s (5):
| predicted target | reagent no. | Kc cell number, rep 1 | Kc cell number, rep 2 | S2R+ cell number, rep 1 | S2R+ cell number, rep 2 | outcome |
| --- | --- | --- | --- | --- | --- | --- |
| Sytbeta (Synaptotagmin beta) | 1 | 1.32e6 | 1.44e6 | 1.25e6 | 1.39e6 | inactive |
| Sytbeta (Synaptotagmin beta) | 2 | 1.39e6 | 1.64e6 | 1.40e6 | 1.50e6 | inactive |
| Sfp26Ad (Seminal fluid protein 26Ad) | 1 | 1.38e6 | 1.48e6 | 9.97e5 | 1.15e6 | inactive |
| St2 (Sulfotransferase 2) | 1 | 1.81e6 | 2.05e6 | 1.35e6 | 1.53e6 | inactive |
| spag4 (sperm-associated antigen 4) | 1 | 1.61e6 | 1.66e6 | 1.35e6 | 1.59e6 | inactive |
